Measured values published in the supplement of paper PMC10849652.
The list shows a part of the results.

Chains of the proteins cited; added tags and fusions are not shown. Lines headed by an entry give the natural chain unless they say otherwise; changes in a name come on top.
UniProt Q6P1Q9: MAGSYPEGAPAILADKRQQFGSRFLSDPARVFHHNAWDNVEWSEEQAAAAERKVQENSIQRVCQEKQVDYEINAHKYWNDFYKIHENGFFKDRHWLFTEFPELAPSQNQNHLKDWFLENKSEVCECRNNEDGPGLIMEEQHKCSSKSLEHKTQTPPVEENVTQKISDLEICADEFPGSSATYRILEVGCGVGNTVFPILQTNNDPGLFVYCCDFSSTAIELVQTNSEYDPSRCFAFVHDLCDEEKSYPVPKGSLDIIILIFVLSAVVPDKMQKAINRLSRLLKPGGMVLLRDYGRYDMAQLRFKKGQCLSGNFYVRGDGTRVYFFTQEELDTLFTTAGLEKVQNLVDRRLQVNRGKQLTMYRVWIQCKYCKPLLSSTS
UniProt Q9H1A3: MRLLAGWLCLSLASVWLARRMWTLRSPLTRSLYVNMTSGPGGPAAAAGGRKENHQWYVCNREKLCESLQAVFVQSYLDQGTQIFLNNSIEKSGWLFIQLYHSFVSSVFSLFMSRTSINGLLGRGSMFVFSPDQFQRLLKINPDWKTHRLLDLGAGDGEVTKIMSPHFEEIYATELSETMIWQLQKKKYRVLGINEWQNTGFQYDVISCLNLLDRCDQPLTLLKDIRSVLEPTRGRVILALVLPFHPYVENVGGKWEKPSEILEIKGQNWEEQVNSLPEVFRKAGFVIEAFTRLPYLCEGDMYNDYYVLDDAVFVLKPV
UniProt Q9NX70: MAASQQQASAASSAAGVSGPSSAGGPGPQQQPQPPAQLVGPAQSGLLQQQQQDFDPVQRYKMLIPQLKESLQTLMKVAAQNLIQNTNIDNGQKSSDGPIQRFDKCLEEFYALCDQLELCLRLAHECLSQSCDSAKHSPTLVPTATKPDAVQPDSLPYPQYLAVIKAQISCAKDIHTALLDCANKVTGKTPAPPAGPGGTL
UniProt Q8TC05: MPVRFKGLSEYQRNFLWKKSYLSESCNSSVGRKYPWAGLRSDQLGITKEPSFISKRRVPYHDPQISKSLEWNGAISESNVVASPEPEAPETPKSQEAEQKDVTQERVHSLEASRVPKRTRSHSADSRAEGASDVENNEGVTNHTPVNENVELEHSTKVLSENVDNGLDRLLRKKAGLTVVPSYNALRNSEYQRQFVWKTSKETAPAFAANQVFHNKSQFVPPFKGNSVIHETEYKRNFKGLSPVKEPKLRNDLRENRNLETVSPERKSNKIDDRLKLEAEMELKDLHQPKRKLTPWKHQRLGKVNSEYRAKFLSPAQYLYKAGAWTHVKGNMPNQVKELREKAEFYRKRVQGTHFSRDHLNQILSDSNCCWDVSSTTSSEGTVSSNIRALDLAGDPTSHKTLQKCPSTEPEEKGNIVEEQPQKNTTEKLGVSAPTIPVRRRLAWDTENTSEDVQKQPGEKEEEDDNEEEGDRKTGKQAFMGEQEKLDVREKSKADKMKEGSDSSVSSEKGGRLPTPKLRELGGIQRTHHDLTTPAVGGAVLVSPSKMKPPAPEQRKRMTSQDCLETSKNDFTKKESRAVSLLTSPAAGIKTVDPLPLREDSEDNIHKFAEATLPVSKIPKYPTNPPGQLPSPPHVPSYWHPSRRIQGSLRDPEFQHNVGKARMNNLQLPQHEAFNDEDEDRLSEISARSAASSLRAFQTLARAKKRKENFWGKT
UniProt Q9H204: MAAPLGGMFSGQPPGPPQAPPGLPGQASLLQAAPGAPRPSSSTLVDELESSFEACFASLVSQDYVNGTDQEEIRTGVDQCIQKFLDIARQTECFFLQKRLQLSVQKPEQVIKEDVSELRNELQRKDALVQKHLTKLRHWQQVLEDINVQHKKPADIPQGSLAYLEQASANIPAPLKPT
UniProt O95243: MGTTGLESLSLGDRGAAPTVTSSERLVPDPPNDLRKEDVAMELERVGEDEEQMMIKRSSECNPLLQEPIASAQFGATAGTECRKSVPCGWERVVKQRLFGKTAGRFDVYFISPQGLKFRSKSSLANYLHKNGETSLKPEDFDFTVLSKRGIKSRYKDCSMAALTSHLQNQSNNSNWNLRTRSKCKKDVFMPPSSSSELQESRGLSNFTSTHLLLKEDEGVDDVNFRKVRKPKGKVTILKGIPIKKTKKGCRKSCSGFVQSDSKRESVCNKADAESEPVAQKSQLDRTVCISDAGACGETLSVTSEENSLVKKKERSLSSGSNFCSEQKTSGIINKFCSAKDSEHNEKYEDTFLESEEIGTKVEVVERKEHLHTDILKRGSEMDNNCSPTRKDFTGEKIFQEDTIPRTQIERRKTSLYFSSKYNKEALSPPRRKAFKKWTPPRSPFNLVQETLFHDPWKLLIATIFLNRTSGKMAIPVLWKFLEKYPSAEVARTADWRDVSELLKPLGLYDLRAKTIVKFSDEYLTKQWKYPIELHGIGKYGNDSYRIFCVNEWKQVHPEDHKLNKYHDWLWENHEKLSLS
UniProt Q6ZSS7: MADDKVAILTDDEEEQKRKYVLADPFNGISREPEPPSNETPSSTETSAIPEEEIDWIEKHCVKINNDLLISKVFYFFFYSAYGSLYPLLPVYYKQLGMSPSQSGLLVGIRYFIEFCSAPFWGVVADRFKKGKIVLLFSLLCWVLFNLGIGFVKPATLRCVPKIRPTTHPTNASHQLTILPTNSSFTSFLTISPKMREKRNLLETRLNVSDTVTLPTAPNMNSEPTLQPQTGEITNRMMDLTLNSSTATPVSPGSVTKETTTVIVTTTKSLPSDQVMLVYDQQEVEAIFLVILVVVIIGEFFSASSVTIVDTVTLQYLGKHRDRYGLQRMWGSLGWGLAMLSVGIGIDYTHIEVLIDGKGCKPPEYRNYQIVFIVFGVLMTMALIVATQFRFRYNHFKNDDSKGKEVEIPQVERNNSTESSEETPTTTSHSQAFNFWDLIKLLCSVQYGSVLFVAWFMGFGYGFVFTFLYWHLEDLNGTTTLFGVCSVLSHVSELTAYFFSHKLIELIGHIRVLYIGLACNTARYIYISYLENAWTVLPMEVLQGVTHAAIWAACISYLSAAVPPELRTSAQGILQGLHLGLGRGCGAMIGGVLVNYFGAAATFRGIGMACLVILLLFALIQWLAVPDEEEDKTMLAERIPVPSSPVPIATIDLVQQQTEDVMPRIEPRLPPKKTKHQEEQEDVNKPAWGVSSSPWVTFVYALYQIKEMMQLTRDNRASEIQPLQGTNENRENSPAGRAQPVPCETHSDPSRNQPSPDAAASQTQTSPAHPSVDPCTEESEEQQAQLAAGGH
UniProt O00255, whole entry, looked up: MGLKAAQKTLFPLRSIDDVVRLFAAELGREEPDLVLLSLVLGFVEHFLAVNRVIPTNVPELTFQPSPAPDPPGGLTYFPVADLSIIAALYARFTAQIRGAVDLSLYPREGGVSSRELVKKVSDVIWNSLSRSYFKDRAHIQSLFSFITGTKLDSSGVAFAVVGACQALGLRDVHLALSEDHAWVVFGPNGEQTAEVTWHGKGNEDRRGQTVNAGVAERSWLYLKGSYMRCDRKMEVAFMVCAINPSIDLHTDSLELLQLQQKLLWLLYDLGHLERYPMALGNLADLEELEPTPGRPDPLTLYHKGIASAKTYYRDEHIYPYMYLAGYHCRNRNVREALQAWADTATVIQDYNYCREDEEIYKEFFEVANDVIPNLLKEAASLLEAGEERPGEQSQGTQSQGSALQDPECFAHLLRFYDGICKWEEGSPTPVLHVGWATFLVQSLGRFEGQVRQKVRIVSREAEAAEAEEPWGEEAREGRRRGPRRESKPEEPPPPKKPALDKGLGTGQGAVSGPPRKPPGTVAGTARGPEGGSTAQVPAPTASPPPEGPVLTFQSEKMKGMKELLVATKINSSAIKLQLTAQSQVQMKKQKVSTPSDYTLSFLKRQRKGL
UniProt Q14680: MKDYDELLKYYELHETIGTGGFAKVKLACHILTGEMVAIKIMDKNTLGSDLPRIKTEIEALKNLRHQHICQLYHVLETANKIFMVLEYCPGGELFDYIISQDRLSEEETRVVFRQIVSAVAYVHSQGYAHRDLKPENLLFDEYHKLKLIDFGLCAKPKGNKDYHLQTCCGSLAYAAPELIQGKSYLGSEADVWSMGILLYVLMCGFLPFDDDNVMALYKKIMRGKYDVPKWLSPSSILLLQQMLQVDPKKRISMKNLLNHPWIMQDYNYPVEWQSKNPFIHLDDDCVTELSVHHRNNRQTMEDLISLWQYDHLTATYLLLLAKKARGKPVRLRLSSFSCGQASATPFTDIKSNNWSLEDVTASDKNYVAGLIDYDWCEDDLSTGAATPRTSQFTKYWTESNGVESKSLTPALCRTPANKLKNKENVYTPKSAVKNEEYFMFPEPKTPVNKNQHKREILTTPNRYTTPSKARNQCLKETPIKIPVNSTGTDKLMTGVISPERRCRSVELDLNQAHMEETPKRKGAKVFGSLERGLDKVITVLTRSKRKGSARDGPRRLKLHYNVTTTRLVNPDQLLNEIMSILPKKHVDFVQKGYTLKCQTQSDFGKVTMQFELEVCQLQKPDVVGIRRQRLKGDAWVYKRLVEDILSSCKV
UniProt O15151: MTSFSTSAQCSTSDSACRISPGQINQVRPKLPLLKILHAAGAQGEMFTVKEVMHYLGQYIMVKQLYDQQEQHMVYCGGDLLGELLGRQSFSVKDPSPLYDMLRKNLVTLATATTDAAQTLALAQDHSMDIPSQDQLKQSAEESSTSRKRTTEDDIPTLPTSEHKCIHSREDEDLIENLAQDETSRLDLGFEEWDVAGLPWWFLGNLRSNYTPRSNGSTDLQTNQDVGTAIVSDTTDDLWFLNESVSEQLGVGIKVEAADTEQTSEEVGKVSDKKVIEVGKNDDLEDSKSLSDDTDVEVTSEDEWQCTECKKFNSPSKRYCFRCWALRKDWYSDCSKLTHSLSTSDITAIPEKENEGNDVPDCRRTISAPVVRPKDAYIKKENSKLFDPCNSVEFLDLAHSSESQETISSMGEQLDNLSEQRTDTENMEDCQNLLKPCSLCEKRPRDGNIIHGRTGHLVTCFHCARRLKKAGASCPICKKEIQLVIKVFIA
UniProt Q8NBP5: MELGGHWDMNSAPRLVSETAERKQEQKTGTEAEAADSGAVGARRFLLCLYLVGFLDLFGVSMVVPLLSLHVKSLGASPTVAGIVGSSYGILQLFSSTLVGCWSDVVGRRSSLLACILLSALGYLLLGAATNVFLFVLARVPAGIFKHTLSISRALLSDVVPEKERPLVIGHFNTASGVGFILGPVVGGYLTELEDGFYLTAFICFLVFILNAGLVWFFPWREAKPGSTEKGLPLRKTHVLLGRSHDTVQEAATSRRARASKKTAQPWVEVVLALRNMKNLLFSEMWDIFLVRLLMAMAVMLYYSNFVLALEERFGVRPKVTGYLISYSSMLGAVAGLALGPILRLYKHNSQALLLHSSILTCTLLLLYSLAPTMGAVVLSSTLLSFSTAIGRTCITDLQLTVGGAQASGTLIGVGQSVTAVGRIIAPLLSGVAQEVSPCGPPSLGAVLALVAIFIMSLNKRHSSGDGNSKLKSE
UniProt Q13503: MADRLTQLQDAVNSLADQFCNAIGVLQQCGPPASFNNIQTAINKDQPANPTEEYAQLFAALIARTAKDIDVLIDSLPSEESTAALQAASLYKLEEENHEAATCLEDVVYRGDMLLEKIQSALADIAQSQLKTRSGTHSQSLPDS
UniProt Q5TF39: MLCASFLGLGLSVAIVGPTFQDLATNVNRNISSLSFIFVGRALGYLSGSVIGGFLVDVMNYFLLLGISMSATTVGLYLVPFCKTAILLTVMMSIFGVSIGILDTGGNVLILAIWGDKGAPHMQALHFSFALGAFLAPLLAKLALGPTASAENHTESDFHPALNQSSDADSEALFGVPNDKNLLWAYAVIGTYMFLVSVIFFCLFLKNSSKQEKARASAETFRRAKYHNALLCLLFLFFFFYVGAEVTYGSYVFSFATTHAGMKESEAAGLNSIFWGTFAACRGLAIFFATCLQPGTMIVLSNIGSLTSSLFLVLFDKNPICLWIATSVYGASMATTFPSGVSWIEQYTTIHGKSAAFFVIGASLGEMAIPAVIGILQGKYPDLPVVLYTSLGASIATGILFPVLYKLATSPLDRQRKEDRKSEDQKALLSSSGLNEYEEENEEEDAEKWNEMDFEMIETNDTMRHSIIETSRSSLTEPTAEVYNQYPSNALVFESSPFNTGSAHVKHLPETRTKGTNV
UniProt Q9H7H0: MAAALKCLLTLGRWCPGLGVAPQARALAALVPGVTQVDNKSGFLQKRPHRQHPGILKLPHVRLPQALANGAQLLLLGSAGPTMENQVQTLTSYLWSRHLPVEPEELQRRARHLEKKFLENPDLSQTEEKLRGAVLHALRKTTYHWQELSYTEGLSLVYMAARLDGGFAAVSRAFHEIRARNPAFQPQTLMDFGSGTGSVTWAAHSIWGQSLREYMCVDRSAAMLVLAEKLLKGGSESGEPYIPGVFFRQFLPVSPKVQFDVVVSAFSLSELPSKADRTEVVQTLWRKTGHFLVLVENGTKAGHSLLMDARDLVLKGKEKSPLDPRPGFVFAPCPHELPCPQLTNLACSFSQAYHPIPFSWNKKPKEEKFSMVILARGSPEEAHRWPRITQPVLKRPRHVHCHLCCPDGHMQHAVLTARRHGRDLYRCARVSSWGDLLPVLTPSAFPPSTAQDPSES

Assays:
Test in all cases: log2 fold change, soluble protein after heating vs DMSO (PISA); higher = thermal stabilisation; K562 lysate, 10 uM; active = over 0.2 and 3.5 SD of the protein, either way, in both replicates (recomputed)
[1] = compound: C1=CC=C(C=C1)[C@H](COC2=CC3=C(C=C2)NC(=O)N3)NC(=O)C4=CC=CN(C4=O)CC5=CC(=C(C=C5)F)F
Summary of the method: (§1)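 Thermal stability, expressed as log-two fold change relative to solvent controls, is given from duplicates. Crude K562 extract in PBS pH 7.4 with 1 mM MgCl2, at 1 mg/mL protein, was treated with 10 μM compound for 30 min and heated in aliquots for 3 min across 48°C-58°C. After pooling, adjustment to 0.5% NP-40 at 4°C and centrifugation at 21,000xg for 90 min, supernatant protein was measured by TMTpro 16plex LC-MS/MS with channel sums equalised.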

[2] = compound: CC1=C(SC2=C1C(=N[C@H](C3=NN=C(N32)C)CC(=O)N)C4=CC=C(C=C4)Cl)C
Summary of the method: as §1

[3] = compound: CC1=C2C(=CC=C1)N=C(N(C2=O)C3=CC=CC=C3C)CN4C=NC5=C(N=CN=C54)N
Summary of the method: as §1

[4] = compound: Cc1sc2c(c1C)C(c1ccc(Cl)cc1)=N[C@@H](CC(=O)OC(C)(C)C)c1nnc(C)n1-2
Summary of the method: as §1

[5] = compound: c1ccc([C@@H]2C[C@H]2NC2CCNCC2)cc1
Summary of the method: as §1

Row | Target | log2 fold change [1] | log2 fold change [2] | log2 fold change [3] | log2 fold change [4] | log2 fold change [5]
1 | METTL3 (UniProt Q86U44) | inactive: 0.032 | inactive: -0.024 | inactive: -0.032 | inactive: -0.005 | inactive: 0.028
2 | MCM7 (UniProt P33993) | inactive: 0.014 | inactive: -0.001 | inactive: -0.036 | inactive: 0.012 | inactive: 0.035
3 | MFSD10 (UniProt Q14728) | inactive: 0.029 | inactive: -0.014 | inactive: -0.093 | inactive: -0.064 | inactive: -0.104
4 | METTL2B (UniProt Q6P1Q9) | inactive: -0.065 | inactive: 0.044 | – | inactive: -0.135 | inactive: 0.104
5 | MEIS1 (UniProt O00470) | inactive: -0.079 | inactive: 0.005 | – | – | inactive: -0.316
6 | METTL9 (UniProt Q9H1A3) | inactive: 0.058 | inactive: 0.014 | – | inactive: 0.088 | inactive: -0.12
7 | MEIOB isoform 2 (UniProt Q8N635) | – | – | – | inactive: 0.118 | inactive: 0.03
8 | MCTS2P, A0A3B3IRV3 | – | – | – | inactive: -0.2 | –
9 | METTL21A (UniProt Q8WXB1) | inactive: 0.048 | inactive: -0.069 | – | inactive: -0.068 | inactive: 0
10 | MDK (UniProt P21741) | – | – | – | inactive: -0.103 | inactive: 0.245
11 | MED29 (UniProt Q9NX70) | – | – | – | inactive: -0.315 | inactive: 0.043
12 | MEGF8 (UniProt Q7Z7M0) | inactive: 0.023 | inactive: -0.022 | – | inactive: 0.116 | inactive: 0.1
13 | MDM1 (UniProt Q8TC05) | – | – | inactive: 0.018 | inactive: -0.116 | active: -0.866
14 | MED28 (UniProt Q9H204) | – | – | – | inactive: -0.032 | inactive: 0.018
15 | MBD4 (UniProt O95243) | – | – | – | inactive: 0.043 | inactive: -0.068
16 | MFSD6 (UniProt Q6ZSS7) | inactive: 0.057 | inactive: -0.082 | – | inactive: 0.032 | inactive: 0.043
17 | MCPH1 (UniProt Q8NEM0) | – | – | – | – | inactive: -0.002
18 | MFSD11 (UniProt O43934) | inactive: 0.114 | inactive: 0.003 | – | – | inactive: -0.088
19 | MEX3A (UniProt A1L020) | – | – | inactive: 0.15 | inactive: -0.073 | –
20 | MCEMP1 (UniProt Q8IX19) | – | – | – | inactive: 0.078 | –
21 | MEN1 (UniProt O00255) | – | – | inactive: 0.039 | inactive: -0.118 | –

Quoted at random: 3 records from the list
Row | Target | log2 fold change [1] | log2 fold change [2] | log2 fold change [3] | log2 fold change [4] | log2 fold change [5]
17 | MCPH1 (UniProt Q8NEM0) | – | – | – | – | inactive: -0.002
4 | METTL2B (UniProt Q6P1Q9) | inactive: -0.065 | inactive: 0.044 | – | inactive: -0.135 | inactive: 0.104
7 | MEIOB isoform 2 (UniProt Q8N635) | – | – | – | inactive: 0.118 | inactive: 0.03

(further entries)

Row | Target | log2 fold change [1] | log2 fold change [2] | log2 fold change [3] | log2 fold change [4] | log2 fold change [5]
22 | MELK (UniProt Q14680) | – | – | inactive: 0.13 | inactive: -0.089 | inactive: -0.046
23 | METTL23 (UniProt Q86XA0) | – | – | inactive: -0.086 | – | –
24 | MEF2C isoform 2 (UniProt Q06413) | – | – | inactive: 0.052 | inactive: -0.066 | inactive: -0.075
25 | MBD6 (UniProt Q96DN6) | – | – | – | inactive: -0.174 | –
26 | MBLAC1 (UniProt A4D2B0) | – | – | inactive: 0.17 | – | inactive: -0.066
27 | MED25 isoform 3 (UniProt Q71SY5) | inactive: -0.069 | inactive: 0.026 | – | inactive: 0.01 | inactive: 0.052
28 | MDM4 (UniProt O15151) | – | – | inactive: -0.097 | inactive: -0.186 | inactive: 0.028
29 | MFAP3 (UniProt P55082) | – | – | inactive: -0.04 | inactive: 0.04 | inactive: -0.171
30 | METTL15 (UniProt A6NJ78) | – | – | inactive: -0.128 | – | –
31 | MED31 (UniProt Q9Y3C7) | inactive: 0.027 | inactive: 0.019 | – | inactive: 0.029 | inactive: -0.029
32 | MFSD9 (UniProt Q8NBP5) | – | – | – | inactive: -0.099 | –
33 | MED21 (UniProt Q13503) | inactive: -0.001 | inactive: -0.021 | – | inactive: 0.024 | inactive: 0.164
34 | MCUB (UniProt Q9NWR8) | inactive: 0.097 | inactive: -0.171 | – | inactive: 0.044 | inactive: 0.205
35 | MFSD4B (UniProt Q5TF39) | inactive: 0.056 | inactive: -0.428 | – | inactive: 0.043 | inactive: -0.041
36 | MBNL2 (UniProt Q5VZF2) | – | – | inactive: -0.005 | – | inactive: 0.055
37 | MATK isoform 2 (UniProt P42679) | – | – | – | – | inactive: 0.076
38 | METAP2 isoform 2 (UniProt P50579) | – | – | – | – | inactive: -0.057
39 | MED9 (UniProt Q9NWA0) | – | – | – | inactive: -0.098 | inactive: 0.106
40 | MFSD12 isoform 3 (UniProt Q6NUT3) | – | – | inactive: 0.013 | inactive: -0.021 | inactive: -0.042
41 | METTL17 isoform 3 (UniProt Q9H7H0) | – | – | – | – | inactive: -0.015
42 | MFSD14B (UniProt Q5SR56) | – | – | – | – | inactive: -0.011
